Structures can show the parent of a compound that is named as a salt. ± gives the standard deviation of the averaged measurements. The list shows a part of the results. Baselines shift from plate to plate; read single values as rough.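 The cells are a mouse kidney inner medullary collecting duct line, silenced either for the ciliary gene Rpgrip1l or with a non-targeting control siRNA.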

The test concerns mIMCD3. The test can be described thus: robust z score of cilia incidence (% cells with single cilium) vs plate controls; higher = more ciliated cells (rescue of cilia loss). The note with it: 10 µM; 48 h; siRNA: siRpgrip1l.
Regarding `CC(C)NCC(O)c1ccc2ccccc2c1` (stereo not given) [Pronethalol hydrochloride], the “robust z score of cilia incidence” value was -1.15 ± 0.98. To `O=c1[nH]ccc2c(S(=O)(=O)N3CCCNCC3)cccc12` [HA 1100 hydrochloride] belongs -4.72 ± 2.4; to `O=C(CCCCCN1C(=O)c2cccc3cccc(c23)C1=O)NO` [Scriptaid], -33.4 ± 16; to `CN(C(=O)c1c(O)c2ccccc2n(C)c1=O)c1ccccc1` [Linomide], -154 ± 130.

For the molecule `CC12CC3CC(C)(C1)CC(N)(C3)C2` [Memantine hydrochloride], the “robust z score of cilia incidence” value was -7.38 ± 4.1. In the case of `CC(Oc1ccc(O)cc1)(P(=O)(O)O)P(=O)(O)O`, the “robust z score of cilia incidence” value is -12.1 ± 3.3. To `CN(C)C(=O)C(CCN1CCC(O)(c2ccc(Cl)cc2)CC1)(c1ccccc1)c1ccccc1` [Loperamide hydrochloride] belongs -41.2 ± 2.2. To `COc1nc(C)nc(Cl)c1NC1=NCCN1` [Moxonidine hydrochloride] belongs -10.3 ± 5.6; to `CC(C(=O)O)c1ccc(-c2ccccc2)c(F)c1` (stereo not given) [Flurbiprofen], -16.6 ± 6.6. To `CCS(=O)(=O)N(C)[C@H]1c2cc(C#N)ccc2OC(C)(C)[C@@H]1O` (racemic) [Chromanol 293B] belongs -4.84 ± 0.61; to `COC(=O)/C=C/c1cc(O)ccc1O` [Methyl 2,5-dihydroxycinnamate], -36.6 ± 1.2. As to `O=C(O)CCCc1ccccc1` [sodium 4-Phenylbutyrate], the “robust z score of cilia incidence” value was -14 ± 6.9. The value for `CC(C)C(=O)c1c(C(C)C)nn2ccccc12` [Ibudilast] was -12.6 ± 5.2. The value for `CC(=Cc1ccc(C(=O)O)cc1)c1ccc2c(c1)C(C)(C)CCC2(C)C` was -20.2 ± 2.7. The value for `N#Cc1ccc(NCCNCC(=O)N2CCC[C@H]2C#N)nc1` [NVP DPP 728 dihydrochloride] was -4.58 ± 2.7.
